Taken from: PubChem BioAssay AID1159584 (Peter MacCallum Cancer Centre, 2016)
In all, the deposit lists about 18,000 reagents; below is a part drawn at random. Reagent sequences are not shown. The record does not give: the amount of reagent, the time to read-out.

- Test: 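Genes whose loss is lethal only together with E-cadherin loss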 (primary screen)
- System: human MCF10A breast epithelial cells, parental and CDH1-null
- Knock-down reagent: siRNA against human genes
- Read-out: 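Cell viability by CellTiter-Glo ATP luminescence, each line scaled to the mean of mock wells across plates, then CDH1-null over parental ratio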
- Scale: CDH1-null / parental viability ratio: higher = CDH1-null cells survive relatively better than parental; CDH1-null viability vs mock: higher = more viable CDH1-null cells; parental viability vs mock: higher = more viable parental cells

| target | CDH1-null / parental viability ratio | CDH1-null viability vs mock (fraction of mock) | parental viability vs mock (fraction of mock) |
| --- | --- | --- | --- |
| MAP2 | 1.16 | 1.17 | 1.01 |
| DHRS1 | 0.98 | 0.8 | 0.82 |
| BTBD17 | 1.39 | 0.86 | 0.62 |
| NTM | 1 | 0.57 | 0.57 |
| SLC39A3 | 0.89 | 0.82 | 0.92 |
| SRGAP1 | 1.3 | 1.14 | 0.88 |
| NPC1L1 | 0.63 | 0.46 | 0.73 |
| ZSWIM8 | 1.14 | 0.82 | 0.72 |
| S1PR4 | 1.42 | 0.92 | 0.65 |
| KMT2A | 0.95 | 0.89 | 0.94 |
| IL1RN | 0.75 | 0.62 | 0.83 |
| MSN | 0.75 | 0.66 | 0.88 |
| DCAKD | 0.9 | 0.54 | 0.6 |
| CCDC47 | 0.9 | 0.62 | 0.69 |
| GATA5 | 0.78 | 0.67 | 0.86 |
| SLC25A6 | 1.11 | 0.8 | 0.72 |
| OR2G2 | 1.08 | 1.04 | 0.96 |
| SPOCK1 | 1.39 | 1.11 | 0.8 |
| DDX55 | 1.07 | 1.01 | 0.94 |
| RNASEL | 0.96 | 0.92 | 0.96 |
| ITGAL | 1 | 1.06 | 1.06 |
| AZIN2 | 1.03 | 1.25 | 1.21 |
| ENTHD1 | 1.01 | 0.74 | 0.73 |
| OVCH2 | 0.98 | 1.04 | 1.06 |
| VAX2 | 0.99 | 0.9 | 0.91 |
| FBLN1 | 1.36 | 0.72 | 0.53 |
| XG | 0.93 | 0.78 | 0.84 |
| LSM10 | 1.33 | 1.13 | 0.85 |
| MDN1 | 0.97 | 0.64 | 0.66 |
| ITPKB | 0.57 | 0.55 | 0.96 |
| FAM76A | 0.94 | 0.94 | 1 |
| EMC8 | 0.99 | 0.72 | 0.73 |
| SRPRA | 0.58 | 0.36 | 0.62 |
| MT1HL1 | 1.12 | 0.99 | 0.88 |
| ERBB4 | 1.03 | 1 | 0.97 |
| SEPSECS | 0.94 | 0.62 | 0.66 |
| SIAH1 | 1.12 | 0.67 | 0.6 |
| TGOLN2 | 1.06 | 0.74 | 0.7 |
| PRSS50 | 1.17 | 0.54 | 0.46 |
| OR2T34 | 1.04 | 0.52 | 0.5 |
| KCNK17 | 1.3 | 0.83 | 0.64 |
| KLF8 | 0.72 | 0.62 | 0.86 |
| USP9Y | 1.26 | 1.1 | 0.87 |
| GRIP2 | 1.13 | 0.27 | 0.24 |
| ATP6V1E2 | 0.95 | 0.84 | 0.88 |
| ANGPTL3 | 0.97 | 0.97 | 1 |
| HEY1 | 0.99 | 0.78 | 0.79 |
| ZP4 | 0.89 | 0.74 | 0.83 |
| ACOT11 | 0.82 | 0.62 | 0.76 |
| SLC12A4 | 1.32 | 1 | 0.76 |
| SLC39A13 | 0.82 | 0.62 | 0.76 |
| CCDC158 | 1.05 | 0.46 | 0.44 |
| CUZD1 | 1.24 | 1.1 | 0.89 |
| GSDMB | 0.89 | 0.5 | 0.56 |
| TMEM184C | 0.97 | 0.88 | 0.91 |
| TTPA | 1.01 | 0.87 | 0.86 |
| ARL11 | 1.05 | 0.86 | 0.82 |
| NEK3 | 0.82 | 0.64 | 0.78 |
| HP1BP3 | 0.95 | 0.92 | 0.97 |
| RUVBL1 | 0.94 | 0.87 | 0.93 |
| TNNI3K | 0.71 | 0.7 | 0.98 |
| CD1A | 1.18 | 0.85 | 0.72 |
| ZNF875 | 1.22 | 0.9 | 0.74 |
| ACY1 | 1.21 | 0.94 | 0.78 |
| SCN3A | 1.17 | 0.91 | 0.78 |
| B3GAT1 | 0.76 | 0.25 | 0.33 |
| PRDX1 | 1.28 | 1.2 | 0.94 |
| RSPH1 | 1.13 | 1.04 | 0.92 |
| CABP7 | 0.72 | 0.63 | 0.88 |
| PITPNM1 | 1.11 | 0.91 | 0.82 |
| POLR3C | 1 | 0.72 | 0.72 |
| TPRX1 | 0.96 | 0.67 | 0.7 |
| ZNF839 | 0.79 | 0.68 | 0.86 |
| DSG4 | 1.18 | 0.72 | 0.61 |
| CAPN3 | 1 | 0.38 | 0.38 |
| ELMO3 | 0.85 | 0.7 | 0.82 |
| ATP6V1A | 1.17 | 0.84 | 0.72 |
| TYMP | 1.13 | 1.32 | 1.17 |
| ZNF660 | 1.14 | 0.89 | 0.78 |
| ACAT1 | 1.02 | 1.01 | 0.99 |
| GRB10 | 0.85 | 0.8 | 0.94 |
| NRSN1 | 0.94 | 0.96 | 1.02 |
| ZNG1E | 0.68 | 0.56 | 0.82 |
| SAMSN1 | 1.1 | 1.27 | 1.15 |
| CSTF2T | 2.16 | 0.82 | 0.38 |
| TMEM168 | 0.83 | 0.75 | 0.9 |
| TPO | 1.11 | 0.84 | 0.76 |

14 entries from above, ordered by “CDH1-null viability vs mock (fraction of mock)”, highest first.
| target | CDH1-null / parental viability ratio | CDH1-null viability vs mock (fraction of mock) | parental viability vs mock (fraction of mock) |
| --- | --- | --- | --- |
| SRGAP1 | 1.3 | 1.14 | 0.88 |
| S1PR4 | 1.42 | 0.92 | 0.65 |
| KMT2A | 0.95 | 0.89 | 0.94 |
| BTBD17 | 1.39 | 0.86 | 0.62 |
| SLC39A3 | 0.89 | 0.82 | 0.92 |
| ZSWIM8 | 1.14 | 0.82 | 0.72 |
| DHRS1 | 0.98 | 0.8 | 0.82 |
| GATA5 | 0.78 | 0.67 | 0.86 |
| MSN | 0.75 | 0.66 | 0.88 |
| IL1RN | 0.75 | 0.62 | 0.83 |
| CCDC47 | 0.9 | 0.62 | 0.69 |
| NTM | 1 | 0.57 | 0.57 |
| DCAKD | 0.9 | 0.54 | 0.6 |
| NPC1L1 | 0.63 | 0.46 | 0.73 |
